Paper doi:10.1101/2024.05.31.596839
Positions count from the first letter of the chain named. These are yes or no findings as the source states them, for the method shown. For some of these results: Binding calls can cover weak binding; strength is not graded here. For some of these results: Tags and fused reporters may be left off the sequences shown.

Protein sequences, listed by entry. Tags and fused reporters are not part of them. Lines headed by an entry give the natural chain unless they say otherwise; changes in a name come on top.
UniProt Q9VKM1: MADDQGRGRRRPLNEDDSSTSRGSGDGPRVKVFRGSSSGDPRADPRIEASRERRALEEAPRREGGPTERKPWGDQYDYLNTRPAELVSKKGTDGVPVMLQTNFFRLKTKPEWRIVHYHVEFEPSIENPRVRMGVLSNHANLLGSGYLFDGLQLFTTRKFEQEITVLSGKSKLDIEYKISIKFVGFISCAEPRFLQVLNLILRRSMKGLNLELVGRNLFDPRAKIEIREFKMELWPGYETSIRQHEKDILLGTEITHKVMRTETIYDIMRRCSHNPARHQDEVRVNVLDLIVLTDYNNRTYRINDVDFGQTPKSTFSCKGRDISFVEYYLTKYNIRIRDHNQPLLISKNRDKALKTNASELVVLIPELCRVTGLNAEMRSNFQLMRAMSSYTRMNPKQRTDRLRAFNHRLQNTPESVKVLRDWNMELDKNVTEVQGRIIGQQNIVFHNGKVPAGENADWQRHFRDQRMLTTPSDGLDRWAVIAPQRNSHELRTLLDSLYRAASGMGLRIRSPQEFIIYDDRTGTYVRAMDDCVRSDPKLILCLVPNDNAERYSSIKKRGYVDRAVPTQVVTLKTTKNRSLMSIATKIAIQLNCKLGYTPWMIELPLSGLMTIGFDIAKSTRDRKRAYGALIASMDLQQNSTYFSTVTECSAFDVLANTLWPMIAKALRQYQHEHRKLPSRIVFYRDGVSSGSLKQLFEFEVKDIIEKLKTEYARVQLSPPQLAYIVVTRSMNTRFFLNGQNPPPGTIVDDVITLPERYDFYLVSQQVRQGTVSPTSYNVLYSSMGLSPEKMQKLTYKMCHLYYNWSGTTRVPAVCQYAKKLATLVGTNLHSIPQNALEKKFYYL

Legend:
[1] = target: T1, Papi (Drosophila) (UniProt Q9VQ91); test: ReLo
T1 sequence: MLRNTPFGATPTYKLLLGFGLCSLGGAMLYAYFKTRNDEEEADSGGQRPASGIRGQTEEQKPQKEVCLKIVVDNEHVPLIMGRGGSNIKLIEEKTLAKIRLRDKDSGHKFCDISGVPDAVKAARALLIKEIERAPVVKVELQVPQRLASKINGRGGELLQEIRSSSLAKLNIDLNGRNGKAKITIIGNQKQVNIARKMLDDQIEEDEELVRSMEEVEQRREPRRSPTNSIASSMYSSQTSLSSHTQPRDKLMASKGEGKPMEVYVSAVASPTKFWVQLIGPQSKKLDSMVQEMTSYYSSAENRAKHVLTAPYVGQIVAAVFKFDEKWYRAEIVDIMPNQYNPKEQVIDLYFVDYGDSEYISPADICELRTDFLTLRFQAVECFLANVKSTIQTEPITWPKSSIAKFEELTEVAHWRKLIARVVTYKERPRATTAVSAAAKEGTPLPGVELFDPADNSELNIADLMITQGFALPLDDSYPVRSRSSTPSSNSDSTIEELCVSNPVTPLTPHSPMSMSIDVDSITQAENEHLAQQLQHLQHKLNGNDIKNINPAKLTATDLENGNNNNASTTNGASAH

[2] = target: T2, Spindle E (Drosophila) (UniProt Q9VF26); test: ReLo
T2 sequence: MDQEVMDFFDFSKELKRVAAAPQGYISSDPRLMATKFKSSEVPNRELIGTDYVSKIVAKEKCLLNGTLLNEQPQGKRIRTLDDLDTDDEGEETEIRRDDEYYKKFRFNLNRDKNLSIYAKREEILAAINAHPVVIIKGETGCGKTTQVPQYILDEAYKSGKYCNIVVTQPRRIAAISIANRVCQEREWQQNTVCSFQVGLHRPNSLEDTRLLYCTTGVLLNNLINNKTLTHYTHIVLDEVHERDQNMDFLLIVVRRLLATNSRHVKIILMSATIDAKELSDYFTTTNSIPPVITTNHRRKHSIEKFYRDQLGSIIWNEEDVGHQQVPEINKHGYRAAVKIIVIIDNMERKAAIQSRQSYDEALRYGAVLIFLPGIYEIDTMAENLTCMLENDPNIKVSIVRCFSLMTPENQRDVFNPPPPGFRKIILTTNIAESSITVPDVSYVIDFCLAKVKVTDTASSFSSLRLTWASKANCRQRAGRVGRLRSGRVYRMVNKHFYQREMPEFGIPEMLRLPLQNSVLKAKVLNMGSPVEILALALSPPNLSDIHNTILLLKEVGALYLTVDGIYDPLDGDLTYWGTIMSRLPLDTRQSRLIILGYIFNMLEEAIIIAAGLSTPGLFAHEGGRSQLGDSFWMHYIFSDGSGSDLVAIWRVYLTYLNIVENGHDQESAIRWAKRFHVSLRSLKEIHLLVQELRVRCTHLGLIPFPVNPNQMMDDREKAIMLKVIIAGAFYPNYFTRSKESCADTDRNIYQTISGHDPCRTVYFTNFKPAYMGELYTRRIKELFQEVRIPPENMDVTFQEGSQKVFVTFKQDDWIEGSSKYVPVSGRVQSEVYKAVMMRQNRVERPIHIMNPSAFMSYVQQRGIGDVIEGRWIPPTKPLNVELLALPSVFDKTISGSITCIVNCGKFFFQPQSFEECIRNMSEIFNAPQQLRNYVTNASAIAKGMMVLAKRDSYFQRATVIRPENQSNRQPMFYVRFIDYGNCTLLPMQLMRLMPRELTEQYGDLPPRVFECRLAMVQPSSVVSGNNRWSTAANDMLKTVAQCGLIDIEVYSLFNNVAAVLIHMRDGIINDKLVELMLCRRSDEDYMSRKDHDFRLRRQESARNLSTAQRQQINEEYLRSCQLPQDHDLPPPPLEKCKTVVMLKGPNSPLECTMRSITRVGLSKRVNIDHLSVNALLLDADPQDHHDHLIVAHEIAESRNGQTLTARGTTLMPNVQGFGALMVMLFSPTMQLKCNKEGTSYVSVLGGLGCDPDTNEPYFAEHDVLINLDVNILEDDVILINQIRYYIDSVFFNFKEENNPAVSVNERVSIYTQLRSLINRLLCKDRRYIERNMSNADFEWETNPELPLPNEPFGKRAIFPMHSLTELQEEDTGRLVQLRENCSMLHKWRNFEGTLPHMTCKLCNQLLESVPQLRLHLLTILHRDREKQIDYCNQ

[3] = target: T3, Spindle E MUT (Drosophila) (UniProt Q9VF26); test: ReLo
T3 sequence: T2 sequence with K339E, V342E

[4] = target: Daedalus (Drosophila); test: ReLo
[5] = target: Yb C-terminal portion (aa 335-1042) (Drosophila); test: ReLo
[6] = target: GST-superfolder-GFP (GsfG)-Tejas (Drosophila); test: condition: 2 nmol MBP fusion, 1 nmol GST fusion in 100 µl
[7] = target: GST-Tejas (Drosophila); test: condition: 5 nmol MBP fusion, 1 nmol GST fusion in 100 µl

## Piwi lacking the N-terminus (residues 1-90 deleted) (from UniProt Q9VKM1) (domain or fragment)
[1]
  binding: no binding

## Tejas (Drosophila)
[2]
  binding: binds
[3]
  binding: no binding

B1: Armitage (protein, UniProt Q6J5K9 1-1188)
chain: MFTYVSKFFTNPDRNREDILESLDRENSFLDQKLMEEKMDQQLKANPNEINGVLSNKIAELTHGLSEMDVSKESSCTARKGVITSLDGDRGVIDKDVLFETKVAEDIILDLHVGCVVEYLTFTTGEAMRVVKVKSILEHSWEDTSQKEIEKAVDNLKNEKPTFFNTETRSVLGLISQRLASSIDVETEYGQLTVELDNIEMNFIPTNGDRVRLECNIQLDDGFVDKQGEILEVTKLFPTRIQEGEKCIVERVYVHMVVLGPETYILKTDLPTGTDLHLGDIVLADLIECQYSKFTRRAIKITPLEKNFGATKLTQQSSMGSSGSGKAVTVTGVNRFITAELWQKESVSLKLTNNLNRTLRLESITVCNDSESQLSVVSPLESKEISSGSEITVTFEIHTQFLGEAIEKYVLNFDLLKVRRVFTVIVCKTKEEVAEAEKRMIAAEALMAPGRNSQERSRFYANQVWCNKVDVIPGQQIVTKRRFVALRLGCFEVPKELRQICLTSERRQEMIKAIEQHYSFLTEPLSIKTYMHRFRLLLHLEEIECFVNFRNYDRDRAHFLRDGEFLTLQIENLAERRPSLVIGDTLRVINPWSDPDSQTTKSYEGIIHKVLFDRILLKFHSSFQEKYNGEDYRLEFYFSRYSFRKQHHAISKIVGVMGEDFLFPSKVTKRENPQLDVYMKDDDMYLYDSKLEWYNQSLNSIQKRAVFNILRGEAENIPYVLFGPPGSGKTMTLIETLLQLVRNLPGARILVGTPSNSSADLVTKRLIDSKALLQGDFIRLVSYNQVEKDLIPPEIMSYCATSDVGAVGSCEDKMMVTESGLKLRCQAKFIGTHRITISTCTTLGNFLQLGFPAGHFTHVLFDEAGQCTEPETMVPIVMLTKKRSQVVLSGDPRQLQSIVTSRIASKMGFSISFLERLLERSPYRKDLQRFPESSGYNPLVLTKLLYNYRALPSIMSIYSRLFYDDELIPVLSEKDSRESRLLSKLRCVFESEKDIPQAHGTFFYGIIGENRQNNDSPSWFNPQEVREVFLMTIALYRANVTADQIGIITPYQKQVKMLRSMFIGTDVVMPKIGSVEEFQGQERDIILISTVRSSEEILRMDARFSLGFVRCSKRLNVAVSRARAMMIIFGNPHLLAVDECWRQLILFCVKNNAYFGCDLPQMVINQKDEVPVCLETFVPSLNTTDDLN
[4]
  binding: no binding
[5]
  binding: binds

B2: MBP-Maelstrom lacking aa 413-459 (domain or fragment, UniProt Q9VNS0 1-412)
chain: MAPKKHSGFMMFVNEWRNRNAEGRRMTLAQAVSHCGTIWEKMNTQQRGPYNSGGKDANVAQRAKRESSNGHGQVDKAQREATESLMDMKRTIERLVLNAKMSHDLENAKFVFVAFNYFTKALTTDVYVPAEFAACEYSLKEGIRSIYSTMIDPGQIIFGQGSDALLHSSTTHDLPLPPNALGEKNMTKLYRNIVDYLSKCQGKGKTLVVFTPAENITMVKSCFRYLECDDDFRDGGEKIQVFDIQYLLFILKKEVMNVADLNDEKINKFATDAFFKKDFFEFTAGIACQYHEDNDRTKYCTQSMVTRWAYTFTDFMCGDLAITVQPGKHIPAQTKPNYLIISSYASSLDHESSFDSFYSLPGSGVKKESQPEACSLSSSRLSVASSSYKPIDHTSFAANLNEVSEFPSLGMR
[6]
  binding: no binding

## NSSKHHGIAASAQREWNARNLPTHSRLIRKESDNDESENGADGKLKK (domain or fragment, UniProt Q9VNS0 413-459) [MBP-fused Mael C-terminus (aa 413-459), mutated version]
[7]
  binding: no binding
